Binding data for six molecules are collected here from PMC4132792, “Engagement of Nucleotide-binding Oligomerization Domain-containing Protein 1 (NOD1) by Receptor-interacting Protein 2 (RIP2) Is Insufficient for Signal Transduction*” (The Journal of Biological Chemistry, 2014).

Numbering of substitutions follows the chain as printed. In names and notes the source's numbering stands. No constants are given. Whether binding was seen depends on the method and setting. Where a sequence is shown, tags or fusion partners need not be part of it.

Assay [1] addresses His6-tagged recombinant NOD1 CARD (residues 15-110), wild type (human) (UniProt Q9Y239). Description: SEC; Superdex 75 HiLoad 16/60, 25 mM sodium phosphate, 100 mM NaCl, with 2 mM DTT; monomer and dimer; both purified. For orientation: In gel filtration, larger molecules generally elute earlier.
In assay [2] the target is His6-tagged recombinant NOD1 CARD (residues 15-110) E53K (human) (UniProt Q9Y239). The description is as above.
The target in assay [3] is His6-tagged recombinant NOD1 CARD (residues 15-110) C39S (human) (UniProt Q9Y239). Nature of the assay: SEC; Superdex 75 HiLoad 16/60, 25 mM sodium phosphate, 100 mM NaCl, no reducing agent; monomer and dimer; both purified.
For assay [4] the target is unchanged. Description: SEC; Superdex 75 HiLoad 16/60, 25 mM sodium phosphate, 100 mM NaCl, with 2 mM DTT; monomer and dimer; both purified.
For assay [5], the target named is His6-tagged recombinant NOD1 CARD (residues 15-110) E56K (human) (UniProt Q9Y239). The description is as above.
The target of assay [6] is His6-tagged recombinant NOD1 CARD (residues 15-110) A55V (human) (UniProt Q9Y239). The description is as above.
For assay [7], the target named is His6-tagged recombinant NOD1 CARD (residues 15-110) D48K (human) (UniProt Q9Y239). The description is as above.

B1: His6-tagged recombinant NOD1 CARD (residues 15-110), wild type (domain or fragment, human, UniProt Q9Y239-1 15-110, looked up)
chain: ESHPHIQLLKSNRELLVTHIRNTQCLVDNLLKNDYFSAEDAEIVCACPTQPDKVRKILDLVQSKGEEVSEFFLYLLQQLADAYVDLRPWLLEIGFS
notes: NOD1 CARD domain, human, residues 15-110; the dimer is stabilised by an interprotomer disulfide bond through Cys-39 (from the cited crystal structures); also called wild-type NOD1 CARD; wild-type NOD1
With B1, the binding result in assay [1] was “no binding (condition: with 2 mM DTT)”.

B2: His6-tagged recombinant NOD1 CARD (residues 15-110) E53K (domain or fragment, human, UniProt Q9Y239-1 15-110, looked up)
chain: B1 chain with E39K
notes: NOD1 CARD domain, human, residues 15-110, E53K
For B2, the binding result in assay [2] was “no binding (condition: with 2 mM DTT)”.

B3: His6-tagged recombinant NOD1 CARD (residues 15-110) C39S (domain or fragment, UniProt Q9Y239-1 15-110)
chain: B1 chain with C25S
Take B3: the binding result in assay [3] and in assay [4] was “no binding” throughout.

B4: His6-tagged recombinant NOD1 CARD (residues 15-110) E56K (domain or fragment, human, UniProt Q9Y239-1 15-110, looked up)
chain: B1 chain with E42K
notes: NOD1 CARD domain, human, residues 15-110, E56K
As to B4, in assay [5], the binding entry is “no binding (condition: with 2 mM DTT)”.

B5: His6-tagged recombinant NOD1 CARD (residues 15-110) A55V (domain or fragment, human, UniProt Q9Y239-1 15-110, looked up)
chain: B1 chain with A41V
notes: NOD1 CARD domain, human, residues 15-110, A55V (a polymorphism)
In the case of B5, in assay [6], the binding entry was “no binding (condition: with 2 mM DTT)”.

B6: His6-tagged recombinant NOD1 CARD (residues 15-110) D48K (domain or fragment, human, UniProt Q9Y239-1 15-110, looked up)
chain: B1 chain with D34K
notes: NOD1 CARD domain, human, residues 15-110, D48K
With B6, in assay [7], the binding entry was “no binding (condition: with 2 mM DTT)”.
